# Source: PubChem BioAssay AID504444 (National Center for Advancing Translational Sciences (NCATS), 2011)
# The campaign covered roughly 360,000 compounds. About 7,500 (2.1%) were called active. The shares of active, inactive and inconclusive entries below differ from those in the screen. Calls follow the shape of the dose curve; as a rule, active = well fitted inhibition curve with a large enough effect; inconclusive = small, poorly fitted or top-dose-only effect, or effect the other way; inactive = flat fitted curve, though single readings scatter. Where the call is inconclusive, the potency comes from a doubtful curve fit.
# Test: Nrf2 qHTS screen for inhibitors; also: nearly all actives have a fitted effect of over 60% in size
# Conditions: A549 ARE-Fluc reporter, luciferase luminescence, 18-24 h; series mostly up to 46 µM
# In short: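 Two sequential reads on A549 ARE_Fluc cells exposed to compound for 18-24 h: a CellTiter-Fluor fluorescence read for viability, then a luciferase luminescence read for Nrf2/ARE activity.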
# Potency is read from the fitted curve at half-maximal effect.
row,SMILES,Potency
1,Nc1ccccc1C(=O)NNc1c2ccccc2nc2ccccc12,"inconclusive: 11.6 µM [falling, single point]"
2,O=c1[nH]c2ccccc2nc1/C=C/c1ccc(O)cc1,"inconclusive: 9.2 µM [activator, partial curve, poor fit]"
3,Cc1ccc(NC(CNS(=O)(=O)c2ccc(Cl)cc2)c2ccccc2)cc1 (configuration not stated),"inconclusive: 23.1 µM [falling, single point]"
4,COc1cccc2nc(-c3cccs3)nc(NN3C(=O)C=C(C)C3=O)c12,"inconclusive: 0.651 µM [falling, partial curve, poor fit]"
5,Cc1ccc(CNC(=O)C2CCN(c3ncnc4c3nc3n4CCCCC3)CC2)cc1,"inconclusive: 20.6 µM [activator, partial curve, poor fit]"
6,CCSc1nc2c(c(=O)n1Cc1ccccc1)SC(C)C2 (configuration not stated),"inconclusive: 18.4 µM [falling, single point]"
7,Cc1ccc(-c2nnn(CC(=O)N(CC(=O)NC3CCCC3)c3ccc(F)c(Cl)c3)n2)o1,"inconclusive: 29.1 µM [falling, single point]"
8,COC(=O)Cc1nc2ccccc2[nH]1,"inconclusive: 1.3 µM [falling, full curve, poor fit]"
9,N#Cc1c(NC(=O)CSc2ncnc3sccc23)oc(-c2ccco2)c1-c1ccco1,inactive
10,CC1=C(C(=O)Nc2ccccc2F)C(c2ccsc2)C2=C(CC(C)(C)CC2=O)N1 (configuration not stated),inactive
11,O=C(/C=C\Nc1ccccc1Br)c1ccc2c(c1)OCO2,active: 2.06 µM
12,CCOC(=O)C1CCCN(S(=O)(=O)c2cc(-c3cc(C)no3)ccc2C)C1 (configuration not stated),"inconclusive: 29.1 µM [falling, single point]"
13,CCC(=O)N1c2ccc(S(=O)(=O)N3CCN(c4ccccc4Cl)CC3)cc2CC1C (configuration not stated),"inconclusive: 18.4 µM [falling, single point]"
14,CN(C)c1ccc(-c2ccc([C@H]3[C@@H]4C=CCC[C@@]4(C)C(=O)N3Cc3ccccc3)c(F)c2)cc1,"inconclusive: 29.1 µM [falling, single point]"
15,COc1ccc(-c2csc(C3=C(O)CN(Cc4ccc(Cl)cc4)C3=N)n2)cc1OC,"inconclusive: 18.4 µM [falling, partial curve]"
16,Cc1ccccc1C(=O)OCc1cnc(Cl)s1,inactive
17,COc1ccc(N2CCN(C(=O)c3cc(-c4ccc(F)cc4)[nH]c3C)CC2)cc1,inactive
18,Cc1cc(C)n2nc(SCC(=O)Nc3ccc(F)c(F)c3F)nc2n1,active: 14.6 µM
19,Cc1ccc(S(=O)(=O)N2CCC(C(=O)N/N=C/c3ccncc3)CC2)cc1,"inconclusive: 2.91 µM [falling, partial curve]"
20,Cc1ccc(/C=C/C(=O)Nc2ccc([N+](=O)[O-])cc2)o1,inactive
21,C=CCn1c(C)cc(C2=NNC(=Nc3ccc(C)cc3)SC2)c1C,"inconclusive: 4.61 µM [activator, full curve]"
22,CCC(=O)c1ccc(OCC(=O)NCCc2ccccn2)cc1,"inconclusive: 20.6 µM [activator, single point]"
23,CCN1CCOC(=O)C1CC(=O)Nc1cc(Cl)ccc1OC (configuration not stated),inactive

# 3 structures from above, arranged by heavy-atom count, falling:
row,SMILES,Potency
15,COc1ccc(-c2csc(C3=C(O)CN(Cc4ccc(Cl)cc4)C3=N)n2)cc1OC,"inconclusive: 18.4 µM [falling, partial curve]"
23,CCN1CCOC(=O)C1CC(=O)Nc1cc(Cl)ccc1OC (configuration not stated),inactive
20,Cc1ccc(/C=C/C(=O)Nc2ccc([N+](=O)[O-])cc2)o1,inactive

# An excerpt of these results, with tabs:
row	SMILES	Potency
16	Cc1ccccc1C(=O)OCc1cnc(Cl)s1	inactive
17	COc1ccc(N2CCN(C(=O)c3cc(-c4ccc(F)cc4)[nH]c3C)CC2)cc1	inactive

# Continuation.

row,SMILES,Potency
1,COc1cc(/C=N/NC(=O)Cc2cccs2)c([N+](=O)[O-])cc1OC,inactive
2,COc1ccc(S(=O)(=O)N2CCCN(CC(=O)Nc3ccccc3F)CC2)cc1,inactive
3,CCC(=O)Nc1ccc(C(=O)Nc2cc(C)on2)cc1,"inconclusive: 13 µM [activator, partial curve, poor fit]"
4,C/C(=N\NC(=O)c1cccc(Br)c1)c1ccccn1,active: 2.31 µM
5,Cc1cccc(C)c1Nc1c(-c2ccccc2O)nc2ncccn12,"inconclusive: 23.1 µM [falling, partial curve]"
6,CN(C(=O)COC(=O)C1(C)CC1(Cl)Cl)c1c(N)n(Cc2ccccc2)c(=O)[nH]c1=O (configuration not stated),"inconclusive: 9.2 µM [activator, partial curve, poor fit]"
7,Cc1ccccc1CNC(=O)c1ccc2c(c1)N(Cc1ccccc1)CCS2,"inconclusive: 0.411 µM [falling, full curve, poor fit]"
8,Cc1ccc2[nH]c3c(NCc4ccco4)ncnc3c2c1,"inconclusive: 20.6 µM [falling, single point]"
9,C=CCCC(=O)Nc1nc(C)c(-c2csc(Nc3cc(OC)ccc3OC)n2)s1,inactive
10,Cn1c(=O)c2cc(S(=O)(=O)Nc3ccc4c(c3)OCO4)ccc2n(C)c1=O,"inconclusive: 9.2 µM [falling, partial curve, poor fit]"
11,CC(Oc1ccc(F)cc1)C(=O)Nc1cc(S(=O)(=O)N2CCOCC2)ccc1N1CCCC1 (configuration not stated),inactive
12,COc1ccc(S(=O)(=O)NCCCCNS(=O)(=O)c2ccc(OC)cc2)cc1,"inconclusive: 1.64 µM [falling, full curve, poor fit]"
13,O=C(CSc1ccc2ccccc2n1)N/N=C/c1ccccc1O,"inconclusive: 29.1 µM [falling, single point]"
14,CCCCCCSc1nc(O)c(C2OC(=O)c3c2ccc(OC)c3OC)c(=O)n1CC (configuration not stated),"inconclusive: 0.058 µM [falling, full curve, poor fit]"
15,C=C1CCN([C@@H](CC(C)C)C(=O)O)S(=O)(=O)c2ccccc21,inactive
16,O=C(Nc1ccon1)c1sc2ccccc2c1Cl,"inconclusive: 7.31 µM [activator, partial curve]"
17,c1ccc(-c2ccc(-c3ccccc3)[nH]2)cc1,"inconclusive: 11.6 µM [activator, partial curve]"
18,CCOC(=O)Cc1csc(NC(=S)NC(=O)c2ccccc2C)n1,"inconclusive: 0.146 µM [falling, full curve, poor fit]"
19,C[C@@H]1[C@@H](Sc2ccccc2)CC(=O)O[C@@H]1c1ccc(-c2ccccc2)cc1,active: 18.4 µM
20,O=C(c1cc(-c2cccs2)on1)N1CCN(c2ccc(F)cc2)CC1,"inconclusive: 25.9 µM [falling, partial curve, poor fit]"
21,Cc1ccccc1CN(c1ccc(C(=O)N2CCc3ccccc3C2)cc1)S(C)(=O)=O,active: 14.6 µM
22,COc1cc(OC)cc(OCC(O)Cn2cnc3cc(C)c(C)cc32)c1 (configuration not stated),"inconclusive: 16.4 µM [falling, single point]"
23,O=C1c2ccccc2S(=O)(=O)c2cc(N3CCC(C(=O)N4CCCCC4)CC3)ccc21,inactive

row,SMILES,Potency
1,Cc1cc(C(=O)COC(=O)CNC(=O)c2ccc(F)cc2)c(C)n1Cc1ccco1,"inconclusive: 23.1 µM [activator, single point]"
2,Cc1cc(C(=O)COC(=O)c2ccc3c(c2)OCO3)c(C)n1Cc1cccs1,"inconclusive: 1.46 µM [activator, full curve]"
3,CCCCCC/C=C/c1ccc(OC)c([C@H]2[C@H]3C=CC[C@@H](C)[C@@H]3C(=O)N2Cc2ccccc2)c1,"inconclusive: 4.61 µM [falling, single point]"
4,Nc1ccccc1SCC(=O)Nc1ccc2c(c1)OCCO2,"inconclusive: 10.3 µM [activator, partial curve]"
5,COc1ccc(CSc2nnnn2-c2ccccc2)cc1,inactive
6,Cc1ccc(-n2c(=O)c3ccc(C(=O)NCc4ccccc4Cl)cc3n(CC(N)=O)c2=O)cc1,"inconclusive: 18.4 µM [falling, single point]"
7,COc1ccc2oc(=O)c(C(=O)N3CCCc4ccccc43)cc2c1,"inconclusive: 0.92 µM [falling, full curve, poor fit]"
8,Cc1cccc(CNC(=O)c2cnc3sc(N4CCOCC4)nn3c2=O)c1,"inconclusive: 16.4 µM [falling, partial curve, poor fit]"
9,O=C(Nc1nc(-c2ccc(Cl)cc2)cs1)c1cccnc1,"inconclusive: 4.11 µM [falling, full curve]"
10,COc1ccc(Nc2c3c(nc4ccccc24)CCC3)cc1,"inconclusive: 29.1 µM [falling, single point]"
11,O=C(COc1ccccc1C(=O)Nc1ccccc1)c1ccc(F)cc1,"inconclusive: 29.1 µM [activator, single point]"
12,Cc1onc(-c2ccccc2)c1CNC(=O)Nc1ccc(C(F)(F)F)cc1,"inconclusive: 29.1 µM [falling, single point]"
13,N#C/C(=C\c1ccc(F)cc1)C(=O)NC1CCS(=O)(=O)C1 (configuration not stated),"inconclusive: 29.1 µM [falling, single point]"
14,CCc1ccc(C2=C(C)C(N3CCC(C(=O)NCc4ccc(C)o4)CC3)=NS2(=O)=O)cc1,inactive
15,CCCCNC(=O)[C@@H](c1ccccc1)N1Cc2ccccc2C1=O,"inconclusive: 2.91 µM [activator, partial curve, poor fit]"
16,Cc1cccc(OCCCCn2c(C3CC(=O)N(c4ccc(C)cc4C)C3)nc3ccccc32)c1 (configuration not stated),"inconclusive: 20.6 µM [falling, single point]"
17,COc1ccc2nc(N/C(N)=N/C(=S)Nc3c(C)cccc3C)nc(C)c2c1,"inconclusive: 1.84 µM [falling, full curve, poor fit]"
18,O=C(O)c1ccc(NC(=S)Nc2ccc(S(=O)(=O)Nc3ccccn3)cc2)cc1,"inconclusive: 29.1 µM [activator, single point]"
19,Cc1ccsc1C(=O)N1CCN(C(=O)c2ccco2)CC1,inactive
20,COc1ccc(-c2[nH]ncc2/C=C(/C#N)C(=O)NC2CCCCCC2)cc1,"inconclusive: 9.2 µM [falling, partial curve, poor fit]"
21,O=C(OCC(=O)N1CCCC1)c1ccccc1C(=O)c1ccccc1,"inconclusive: 6.51 µM [activator, partial curve, poor fit]"
